Some results were stated once for a whole list of compounds, not compound by compound.
How the values were obtained:
[1] = target: Constitutively activated human mutant MEK1 (Homo sapiens, UniProt Q02750); assay: MEK activity assay (Example 1a or 1b), HTRF; type: biochemical; details: assay of either Example 1a (62.5 nM MEK1) or 1b (15 nM MEK1); 50 μM ATP, GST-ERK1 substrate
[2] = target: T1, Constitutively activated bRaf mutant (Homo sapiens, UniProt Q02750); assay: bRaf assay (MEK activation assay), HTRF; type: biochemical; details: 200 μM ATP, GST-MEK1 substrate
T1 construct: fused on or other part: GST tag on MEK1

Chains of the proteins cited; added tags and fusions are not shown.
UniProt Q02750, whole entry S218D/S222D: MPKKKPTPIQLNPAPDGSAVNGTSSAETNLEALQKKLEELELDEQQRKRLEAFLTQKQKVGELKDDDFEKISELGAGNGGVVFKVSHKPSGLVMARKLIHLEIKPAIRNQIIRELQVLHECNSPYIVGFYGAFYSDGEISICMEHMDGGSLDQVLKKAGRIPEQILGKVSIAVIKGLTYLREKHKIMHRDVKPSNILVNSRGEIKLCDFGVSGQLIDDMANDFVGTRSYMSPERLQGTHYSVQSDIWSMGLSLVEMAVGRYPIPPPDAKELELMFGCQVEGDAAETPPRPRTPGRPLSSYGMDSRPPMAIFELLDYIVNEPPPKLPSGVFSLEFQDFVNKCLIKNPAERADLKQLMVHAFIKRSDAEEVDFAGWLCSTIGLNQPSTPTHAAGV
UniProt Q02750, whole entry, stated change not applied: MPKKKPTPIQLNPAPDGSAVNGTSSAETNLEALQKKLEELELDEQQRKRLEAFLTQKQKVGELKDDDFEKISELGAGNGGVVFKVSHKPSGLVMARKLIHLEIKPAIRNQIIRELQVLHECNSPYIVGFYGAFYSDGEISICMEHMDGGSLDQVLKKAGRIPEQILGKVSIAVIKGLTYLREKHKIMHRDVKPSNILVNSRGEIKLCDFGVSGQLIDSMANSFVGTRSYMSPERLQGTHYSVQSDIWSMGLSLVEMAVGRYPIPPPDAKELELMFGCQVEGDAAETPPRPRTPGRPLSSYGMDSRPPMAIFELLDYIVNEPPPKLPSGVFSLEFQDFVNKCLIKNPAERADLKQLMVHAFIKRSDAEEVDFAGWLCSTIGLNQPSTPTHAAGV

O=C(NOC[C@H](O)CO)c1sc2cnccc2c1Nc1ccc(I)cc1F [Example 7, 3-(2-Fluoro-4-iodo-phenylamino)-thieno[2,3-c]pyridine-2-carboxylic acid ((R)-2,3-dihydroxy-propoxy)-amide]
IC50 [1]: < 10 µM | IC50 [2]: < 5 µM

O=C(NOCCO)c1sc2ccncc2c1Nc1ccc(I)cc1F [Example 10, 3-(2-Fluoro-4-iodo-phenylamino)-thieno[3,2-c]pyridine-2-carboxylic acid (2-hydroxyethoxy)-amide]
IC50 [1]: < 10 µM | IC50 [2]: < 5 µM

CSc1ccc(Nc2c(C(=O)NOCCO)sc3ccncc23)c(F)c1 [Example 12, 3-(2-Fluoro-4-methylsulfanyl-phenylamino)-thieno[3,2-c]pyridine-2-carboxylic acid (2-hydroxy-ethoxy)-amide]
IC50 [1]: < 10 µM

O=C(NOC[C@H](O)CO)c1sc2ccncc2c1Nc1ccc(I)cc1F [Example 5, 3-(2-Fluoro-4-iodo-phenylamino)-thieno[3,2-c]pyridine-2-carboxylic acid ((R)-2,3-dihydroxy-propoxy)-amide]
IC50 [1]: < 10 µM | IC50 [2]: < 5 µM

O=C(NOCCO)c1sc2c(F)cncc2c1Nc1ccc(I)cc1F [Example 11, 7-Fluoro-3-(2-fluoro-4-iodo-phenylamino)-thieno[3,2-c]pyridine-2-carboxylic acid (2-hydroxy-ethoxy)-amide]
IC50 [1]: < 10 µM

O=C(NOC[C@H](O)CO)c1sc2cnccc2c1Nc1ccc(Br)cc1F [Example 8, 3-(4-Bromo-2-fluoro-phenylamino)-thieno[2,3-c]pyridine-2-carboxylic acid ((R)-2,3-dihydroxy-propoxy)-amide]
IC50 [1]: < 10 µM

O=C(NOC[C@H](O)CO)c1sc2ccncc2c1Nc1ccc(Br)cc1F [Example 6, 3-(4-Bromo-2-fluoro-phenylamino)-thieno[3,2-c]pyridine-2-carboxylic acid ((R)-2,3-dihydroxy-propoxy)-amide]
IC50 [1]: < 10 µM | IC50 [2]: < 5 µM

— patent US7893085B2, “Aza-benzothiophenyl compounds and methods of use” (Genentech, Inc, priority 2006, dated 2011)
